In assay [1] the target is T1, Recombinant mouse PEDF (pigment epithelium-derived factor) (mouse) (UniProt P97298).
T1 sequence: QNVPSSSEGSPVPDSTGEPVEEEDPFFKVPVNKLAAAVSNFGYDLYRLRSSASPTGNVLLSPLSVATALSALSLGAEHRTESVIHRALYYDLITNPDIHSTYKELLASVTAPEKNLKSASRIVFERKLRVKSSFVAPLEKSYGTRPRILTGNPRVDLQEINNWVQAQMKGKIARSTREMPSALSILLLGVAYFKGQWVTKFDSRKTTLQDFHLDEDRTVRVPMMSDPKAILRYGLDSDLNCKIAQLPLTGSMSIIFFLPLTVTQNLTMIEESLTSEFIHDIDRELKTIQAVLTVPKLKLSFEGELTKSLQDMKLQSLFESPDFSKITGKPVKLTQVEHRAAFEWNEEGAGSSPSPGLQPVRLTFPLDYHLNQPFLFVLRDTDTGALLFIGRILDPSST
Briefly: co-IP; MC3T3-E1 cells treated with rPEDF (10 nmol/L; 12 h by the legend, 24 h by the text); membrane protein extracts immunoprecipitated with anti-PEDF antibody, blotted for PEDF-R; only the target purified.

The target of assay [2] is T2, PEDF receptor (PEDF-R) (mouse (endogenous in MC3T3-E1)) (UniProt Q8BJ56).
T2 sequence: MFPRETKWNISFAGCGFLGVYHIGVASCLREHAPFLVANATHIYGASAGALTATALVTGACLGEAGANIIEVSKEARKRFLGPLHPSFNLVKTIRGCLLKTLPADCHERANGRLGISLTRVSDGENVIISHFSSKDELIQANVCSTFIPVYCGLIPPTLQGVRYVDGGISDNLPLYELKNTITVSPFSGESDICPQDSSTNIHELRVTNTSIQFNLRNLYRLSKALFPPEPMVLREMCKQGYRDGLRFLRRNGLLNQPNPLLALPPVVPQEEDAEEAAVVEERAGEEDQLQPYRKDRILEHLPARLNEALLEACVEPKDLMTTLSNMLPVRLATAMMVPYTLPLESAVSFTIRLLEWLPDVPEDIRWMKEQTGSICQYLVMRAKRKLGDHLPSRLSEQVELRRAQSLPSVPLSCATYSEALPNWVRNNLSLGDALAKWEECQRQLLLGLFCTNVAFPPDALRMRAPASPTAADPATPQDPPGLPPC
Briefly: co-IP; MC3T3-E1 cells treated with rPEDF (10 nmol/L; 12 h by the legend, 24 h by the text); membrane protein extracts immunoprecipitated with anti-PEDF-R antibody, blotted for PEDF; only the binder purified.

The text below walks through data of publication PMC4881552.

Results are given in words; binding and its absence hold for the method and conditions named. Binding seen in cells or lysates may run through a third protein. Some binding calls cover weakened binding; strength is not graded here.

B1: PEDF receptor (PEDF-R) (receptor, UniProt Q8BJ56 1-486)
chain: MFPRETKWNISFAGCGFLGVYHIGVASCLREHAPFLVANATHIYGASAGALTATALVTGACLGEAGANIIEVSKEARKRFLGPLHPSFNLVKTIRGCLLKTLPADCHERANGRLGISLTRVSDGENVIISHFSSKDELIQANVCSTFIPVYCGLIPPTLQGVRYVDGGISDNLPLYELKNTITVSPFSGESDICPQDSSTNIHELRVTNTSIQFNLRNLYRLSKALFPPEPMVLREMCKQGYRDGLRFLRRNGLLNQPNPLLALPPVVPQEEDAEEAAVVEERAGEEDQLQPYRKDRILEHLPARLNEALLEACVEPKDLMTTLSNMLPVRLATAMMVPYTLPLESAVSFTIRLLEWLPDVPEDIRWMKEQTGSICQYLVMRAKRKLGDHLPSRLSEQVELRRAQSLPSVPLSCATYSEALPNWVRNNLSLGDALAKWEECQRQLLLGLFCTNVAFPPDALRMRAPASPTAADPATPQDPPGLPPC
As to B1, the binding result in assay [1] was “binds”.

B2: Recombinant mouse PEDF (pigment epithelium-derived factor) (ligand, UniProt P97298 20-417)
chain: QNVPSSSEGSPVPDSTGEPVEEEDPFFKVPVNKLAAAVSNFGYDLYRLRSSASPTGNVLLSPLSVATALSALSLGAEHRTESVIHRALYYDLITNPDIHSTYKELLASVTAPEKNLKSASRIVFERKLRVKSSFVAPLEKSYGTRPRILTGNPRVDLQEINNWVQAQMKGKIARSTREMPSALSILLLGVAYFKGQWVTKFDSRKTTLQDFHLDEDRTVRVPMMSDPKAILRYGLDSDLNCKIAQLPLTGSMSIIFFLPLTVTQNLTMIEESLTSEFIHDIDRELKTIQAVLTVPKLKLSFEGELTKSLQDMKLQSLFESPDFSKITGKPVKLTQVEHRAAFEWNEEGAGSSPSPGLQPVRLTFPLDYHLNQPFLFVLRDTDTGALLFIGRILDPSST
Take B2: in assay [2], the binding result is “binds”.
